Values from PubChem BioAssay AID686943 (Drosophila RNAi Screening Center, 2013)
Test: 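Fly genes whose loss alters ERK activation after insulin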 (primary screen). Cell system: Drosophila S2R+ haemocyte-like cells expressing YFP-tagged ERK (Rolled). Reagent: long dsRNA against Drosophila genes. Conditions: insulin stimulation versus unstimulated cells; dose and duration not given. Read-out: 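Per-plate z-scores of phospho-ERK immunostaining normalised to YFP-tagged ERK, measured with and without insulin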. Reading the numbers: replicate 1, z-score of dpERK with insulin and replicate 2, z-score of dpERK with insulin: higher = more active ERK per ERK-YFP after insulin; replicate 1, z-score of dpERK under basal conditions: higher = more basal active ERK per ERK-YFP; replicate 1, z-score of ERK-YFP with insulin: higher = more YFP-tagged ERK signal.
In all, the deposit lists about 23,000 reagents; this is a random part of those with a known target gene and a result. 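Extra replicates exist only for a retested subset of genes; insulin dose and duration not given; both raised and lowered dpERK matter.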 Not given: the amount of reagent, the time to read-out.

target | DRSC id | replicate 1, z-score of dpERK with insulin | replicate 2, z-score of dpERK with insulin | replicate 1, z-score of dpERK under basal conditions | replicate 1, z-score of ERK-YFP with insulin
Rpi (GeneID 246599) | DRSC04583 | 0.59 | -1.65 | 1.49 | -0.01
CG4041 (GeneID 31422) | DRSC18339 | 0.67 | 0.68 | 0.48 | -0.34
CG11438 (GeneID 40469) | DRSC11660 | -0.58 | 0.46 | 0.55 | -0.15
mus101 (GeneID 48309) | DRSC19388 | 0.65 | 0.48 | -1.9 | -0.06
CG7985 (GeneID 42178) | DRSC14128 | 0.1 | -0.19 | 0.08 | 0.84
CG42570 (GeneID 8674011) | DRSC09391 | 0.04 | -0.5 | 0.04 | -0.35
Nepl15 (GeneID 42701) | DRSC15630 | 0.5 | 0.32 | -0.09 | -0.24
Zip48C (GeneID 36273) | DRSC06314 | -0.22 | 0.02 | 0.37 | 0.24
CG2818 (GeneID 33597) | DRSC00540 | -0.09 | 0 | 8.73 | 1.43
PGAP5 (GeneID 34116) | DRSC03089 | 1.24 | 0.25 | 2.09 | -0.42
CG31077 (GeneID 318583) | DRSC13805 | -1.58 | 0.2 | 2.28 | -1.14
CG10384 (GeneID 37567) | DRSC03933 | 0.15 | -0.39 | -0.32 | -0.52
CG10384 (GeneID 37567) | DRSC04067 | -0.38 | -4.47 | -0.86 | -2.45
CG10205 (GeneID 36650) | DRSC05979 | -1.4 | -0.48 | -0.95 | -2.07
Spn31A (GeneID 34339) | DRSC02780 | -0.78 | -0.25 | -1.32 | -0.05
VhaSFD (GeneID 34997) | DRSC03471 | -1.36 | -0.07 | -0.22 | 0.43
CG4617 (GeneID 31657) | DRSC18377 | -0.06 | -0.25 | -0.34 | -0.01
tey (GeneID 40146) | DRSC11042 | 1.33 | -1.06 | -0.92 | -0.34
tey (GeneID 40146) | DRSC21709 | 0.01 | -1.64 | -0.12 | -0.04
AANATL2 (GeneID 33874) | DRSC03227 | -0.96 | -0.7 | 0.16 | 1.37
MsrA (GeneID 39675) | DRSC11159 | 0.73 | 0.49 | -0.75 | -0.11
CG5863 (GeneID 42096) | DRSC15898 | -0.79 | -0.02 | 0.13 | 0.26
TpnC47D (GeneID 36195) | DRSC07564 | 0.2 | -1.15 | 0.45 | 0.42
E(spl)malpha-BFM (GeneID 43153) | DRSC16994 | -1.31 | -0.15 | -0.83 | -0.85
ase (GeneID 30985) | DRSC18739 | -0.26 | -0.73 | -0.33 | 0.11
CG17272 (GeneID 42465) | DRSC15211 | -0.98 | -0.78 | 0.03 | 0.51
Plekhm1 (GeneID 37520) | DRSC04527 | 0.3 | 0.18 | 1.08 | 0.26
CG6067 (GeneID 31529) | DRSC18399 | 0.09 | 0.02 | 0.24 | 0.27
CG1635 (GeneID 43720) | DRSC15131 | 0.54 | 0.15 | 0.87 | -0.1
RpS13 (GeneID 34149) | DRSC03419 | -1.8 | -1.81 | 0.2 | 1.79
SCCRO (GeneID 39685) | DRSC10844 | -0.81 | 0.78 | 0.26 | 0.16
Hsdl2 (GeneID 43325) | DRSC15839 | 0.7 | 0.65 | -0.03 | -0.19
ND-ASHI (GeneID 31604) | DRSC18291 | 0.2 | 1.14 | 2.91 | 0.5
Mis12 (GeneID 38762) | DRSC10299 | -0.99 | -0.32 | 0.09 | 0.44
jigr1 (GeneID 43093) | DRSC13724 | 0.89 | 0.63 | 0.59 | -0.49
jigr1 (GeneID 43093) | DRSC15233 | 0.46 | 0 | 1.08 | 0.22
jigr1 (GeneID 43093) | DRSC22617 | -0.24 | -0.13 | -0.58 | 0.7
tn (retired record) (GeneID 44536) | DRSC05768 | -0.33 | -0.24 | 1.76 | -0.28
tn (retired record) (GeneID 44536) | DRSC06532 | -0.26 | 0.75 | 0.6 | -0.55
Mst57Dc (GeneID 43121) | DRSC16745 | 0.55 | 0 | 0.18 | -0.28
CG7246 (GeneID 31833) | DRSC18422 | -0.73 | -0.29 | 1.37 | -0.45
CG12224 (GeneID 41453) | DRSC14480 | 0.8 | 0 | 0.63 | -0.6
me31B (GeneID 34364) | DRSC03569 | 0.75 | 0.95 | -1.3 | -1.18
Sod2 (GeneID 36878) | DRSC07554 | -0.21 | 0.5 | 0.19 | 0.22
CG8173 (GeneID 32753) | DRSC20088 | -0.98 | 0.06 | -0.24 | 0.53
eyg (GeneID 39419) | DRSC11344 | -5.17 | -2.96 | -2.69 | 0.19
CG7943 (GeneID 43574) | DRSC16351 | 0.94 | -0.07 | -0.87 | -0.88
CG10257 (GeneID 36671) | DRSC05985 | -0.35 | -0.12 | -0.57 | 0.12
hpo (GeneID 37247) | DRSC06065 | -0.38 | -0.31 | 0.05 | 0.41
Ir60e (GeneID 37917) | DRSC04227 | 0.33 | 0.23 | -0.09 | -0.24
Rilpl (GeneID 31090) | DRSC18494 | -0.43 | 0.38 | -0.3 | -0.27
CG7214 (GeneID 34053) | DRSC03028 | 0.52 | 0.04 | 0.21 | -0.27
CG7214 (GeneID 34053) | DRSC21869 | -0.17 | -0.66 | 0.49 | -0.43
Sbat (GeneID 319043) | DRSC00160 | -0.41 | 0.02 | 1.36 | -0.25
CG1998 (GeneID 32300) | DRSC19829 | 0.39 | 0.09 | 1.37 | 0.02
KCNQ (GeneID 36071) | DRSC06121 | 0.58 | 0.18 | 0.94 | 0.42
KCNQ (GeneID 36071) | DRSC06230 | -0.58 | -0.8 | 2.95 | -0.4

Not a retest: an excerpt of the list.
target | DRSC id | replicate 1, z-score of dpERK with insulin | replicate 2, z-score of dpERK with insulin | replicate 1, z-score of dpERK under basal conditions | replicate 1, z-score of ERK-YFP with insulin
Ir60e (GeneID 37917) | DRSC04227 | 0.33 | 0.23 | -0.09 | -0.24
Rilpl (GeneID 31090) | DRSC18494 | -0.43 | 0.38 | -0.3 | -0.27
CG7214 (GeneID 34053) | DRSC03028 | 0.52 | 0.04 | 0.21 | -0.27
CG7214 (GeneID 34053) | DRSC21869 | -0.17 | -0.66 | 0.49 | -0.43
Sbat (GeneID 319043) | DRSC00160 | -0.41 | 0.02 | 1.36 | -0.25
CG1998 (GeneID 32300) | DRSC19829 | 0.39 | 0.09 | 1.37 | 0.02
KCNQ (GeneID 36071) | DRSC06121 | 0.58 | 0.18 | 0.94 | 0.42
KCNQ (GeneID 36071) | DRSC06230 | -0.58 | -0.8 | 2.95 | -0.4
